Publication PMC13329807
Results are given in words; binding and its absence hold for the method and conditions named. Binding seen in cells or lysates may run through a third protein. Some entries that bind do so weakly or less than the wild type. Tags and fused reporters may be left off the sequences shown.

Protein sequences, listed by entry. Tags and fused reporters are not part of them.
UniProt P35240: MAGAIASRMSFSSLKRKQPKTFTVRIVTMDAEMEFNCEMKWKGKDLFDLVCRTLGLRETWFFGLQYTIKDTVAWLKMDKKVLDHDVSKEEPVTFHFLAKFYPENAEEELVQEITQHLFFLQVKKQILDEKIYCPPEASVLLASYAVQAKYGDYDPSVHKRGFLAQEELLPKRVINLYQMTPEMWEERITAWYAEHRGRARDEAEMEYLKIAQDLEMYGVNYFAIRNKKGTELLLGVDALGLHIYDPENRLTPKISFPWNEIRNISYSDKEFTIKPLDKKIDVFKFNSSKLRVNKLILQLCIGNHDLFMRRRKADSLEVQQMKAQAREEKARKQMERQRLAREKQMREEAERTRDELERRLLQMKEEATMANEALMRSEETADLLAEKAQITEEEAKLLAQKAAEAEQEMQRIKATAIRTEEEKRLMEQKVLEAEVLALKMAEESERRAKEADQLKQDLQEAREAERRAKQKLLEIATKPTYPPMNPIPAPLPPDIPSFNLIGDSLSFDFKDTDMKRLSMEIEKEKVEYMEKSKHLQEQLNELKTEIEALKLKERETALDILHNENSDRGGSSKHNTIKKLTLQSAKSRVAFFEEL
UniProt P46937: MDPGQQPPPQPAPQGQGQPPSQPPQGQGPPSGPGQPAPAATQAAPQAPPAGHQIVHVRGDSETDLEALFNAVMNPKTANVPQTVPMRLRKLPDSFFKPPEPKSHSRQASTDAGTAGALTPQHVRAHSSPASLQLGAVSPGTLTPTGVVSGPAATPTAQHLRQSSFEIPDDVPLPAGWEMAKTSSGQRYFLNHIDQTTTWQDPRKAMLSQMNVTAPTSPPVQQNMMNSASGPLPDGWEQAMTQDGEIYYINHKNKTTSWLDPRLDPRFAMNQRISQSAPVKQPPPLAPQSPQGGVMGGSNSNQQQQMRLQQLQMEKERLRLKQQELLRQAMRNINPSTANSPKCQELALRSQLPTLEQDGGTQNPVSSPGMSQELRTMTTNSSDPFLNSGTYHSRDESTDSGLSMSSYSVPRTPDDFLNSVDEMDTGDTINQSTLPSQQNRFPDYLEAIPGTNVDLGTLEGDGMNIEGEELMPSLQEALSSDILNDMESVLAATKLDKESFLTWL

Biological target: T1, Purified human ARHGAP18 (N-terminal SUMO-HIS-tagged), immobilised on NiNTA beads (human) (UniProt Q8N392)
T1 sequence: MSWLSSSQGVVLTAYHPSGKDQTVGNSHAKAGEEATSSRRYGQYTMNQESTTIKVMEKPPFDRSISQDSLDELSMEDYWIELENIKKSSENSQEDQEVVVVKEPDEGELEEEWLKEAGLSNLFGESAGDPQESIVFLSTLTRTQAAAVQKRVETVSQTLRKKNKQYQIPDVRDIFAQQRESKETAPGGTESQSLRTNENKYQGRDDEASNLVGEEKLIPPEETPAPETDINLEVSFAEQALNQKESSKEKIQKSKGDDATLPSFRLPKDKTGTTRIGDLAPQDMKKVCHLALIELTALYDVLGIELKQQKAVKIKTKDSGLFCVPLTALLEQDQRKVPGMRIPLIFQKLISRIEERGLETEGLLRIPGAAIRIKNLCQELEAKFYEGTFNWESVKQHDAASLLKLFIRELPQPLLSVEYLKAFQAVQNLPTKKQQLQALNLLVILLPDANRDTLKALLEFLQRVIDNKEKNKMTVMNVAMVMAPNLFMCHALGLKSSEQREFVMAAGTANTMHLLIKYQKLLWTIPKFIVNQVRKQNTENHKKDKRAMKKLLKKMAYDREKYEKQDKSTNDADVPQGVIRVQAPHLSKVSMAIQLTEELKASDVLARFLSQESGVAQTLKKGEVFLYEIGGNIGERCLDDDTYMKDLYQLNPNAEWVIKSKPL
Assay: pull-down; SUMO-ARHGAP18 held on NiNTA beads; Jeg-3 WT cell lysate (25 mM Tris, 5% glycerol, 150 mM NaCl, 0.2% Triton X-100, phosphatase and protease inhibitors, 1 mM DTT) nutated with the beads 3 h at 4°C; four washes; Western blot; only the target purified

binding | Substance
binds | GFP-merlin (from UniProt P35240 1-595)
binds | endogenous YAP (Yes-associated protein) (from UniProt P46937 1-504)
